# Results are given in words; binding and its absence hold for the method and conditions named. Binding seen in cells or lysates may run through a third protein. Here binding means that the protein was enriched with, or labelled near, the bait; the list need not be complete. A no says only that the protein was not detected with the bait. For some assays here: Sequences can lack the tags named with a protein.
# The chains behind the UniProt entries cited, without tags or fusion partners.
# UniProt P49336: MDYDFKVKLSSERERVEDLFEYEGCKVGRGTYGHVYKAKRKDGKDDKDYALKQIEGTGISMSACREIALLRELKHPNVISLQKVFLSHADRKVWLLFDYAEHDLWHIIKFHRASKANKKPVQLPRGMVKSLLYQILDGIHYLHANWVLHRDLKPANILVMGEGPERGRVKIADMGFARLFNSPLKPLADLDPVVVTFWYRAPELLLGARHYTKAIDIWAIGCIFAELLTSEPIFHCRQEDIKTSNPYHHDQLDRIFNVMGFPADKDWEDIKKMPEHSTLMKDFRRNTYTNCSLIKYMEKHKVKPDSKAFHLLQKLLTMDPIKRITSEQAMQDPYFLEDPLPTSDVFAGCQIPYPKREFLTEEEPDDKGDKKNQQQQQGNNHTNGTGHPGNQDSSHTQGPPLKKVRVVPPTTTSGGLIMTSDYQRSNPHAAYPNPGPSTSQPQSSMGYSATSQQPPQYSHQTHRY
# T1: Flag-tagged MED13 IDRc (residues 500-1069) expressed in 293-F cells (human) (UniProt Q9UHV7)
# T1 sequence: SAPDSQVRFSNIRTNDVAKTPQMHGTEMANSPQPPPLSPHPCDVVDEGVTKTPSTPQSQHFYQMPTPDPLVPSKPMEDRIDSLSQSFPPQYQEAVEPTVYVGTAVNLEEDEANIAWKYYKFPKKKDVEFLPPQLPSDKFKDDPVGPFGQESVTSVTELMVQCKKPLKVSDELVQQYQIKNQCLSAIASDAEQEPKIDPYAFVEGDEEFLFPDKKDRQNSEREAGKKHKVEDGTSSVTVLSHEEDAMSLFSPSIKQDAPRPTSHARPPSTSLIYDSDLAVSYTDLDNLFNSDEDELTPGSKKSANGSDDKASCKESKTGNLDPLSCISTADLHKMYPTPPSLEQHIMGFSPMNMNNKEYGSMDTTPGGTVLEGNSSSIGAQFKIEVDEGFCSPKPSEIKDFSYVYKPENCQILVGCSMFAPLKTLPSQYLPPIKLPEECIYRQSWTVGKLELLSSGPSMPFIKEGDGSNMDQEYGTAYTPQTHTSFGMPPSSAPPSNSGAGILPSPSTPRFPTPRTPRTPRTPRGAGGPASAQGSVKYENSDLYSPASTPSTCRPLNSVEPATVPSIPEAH
# Tests used:
# [1] = target: Flag-tagged CDK8 expressed in 293-F cells (human) (UniProt P49336); experiment: affinity purification with mass spectrometry
# [2] = target: T1, Flag-tagged MED13 IDRc (residues 500-1069) expressed in 293-F cells (human); experiment: affinity purification with mass spectrometry
binder,measurement,setting,value
"MED26 (endogenous) (protein, UniProt O95402 1-600) MTAAPASPQQIRDRLLQAIDPQSNIRNMVAVLEVISSLEKYPITKEALEETRLGKLINDVRKKTKNEELAKRAKKLLRSWQKLIEPAHQHEAALRGLAGATGSANGGAHNCRPEVGAAGPPRSIHDLKSRNDLQRLPGQRLDRLGSRKRRGDQRDLGHPGPPPKVSKASHDPLVPNSSPLPTNGISGSPESFASSLDGSGHAGPEGSRLERDENDKHSGKIPVNAVRPHTSSPGLGKPPGPCLQPKASVLQQLDRVDETPGPPHPKGPPRCSFSPRNSRHEGSFARQQSLYAPKGSVPSPSPRPQALDATQVPSPLPLAQPSTPPVRRLELLPSAESPVCWLEQPESHQRLAGPGCKAGLSPAEPLLSRAGFSPDSSKADSDAASSGGSDSKKKKRYRPRDYTVNLDGQVAEAGVKPVRLKERKLTFDPMTRQIKPLTQKEPVRADSPVHMEQQSRTELDKQEAKASLQSPFEQTNWKELSRNEIIQSYLSRQSSLLSSSGAQTPGAHHFMSEYLKQEESTRQGARQLHVLVPQSPPTDLPGLTREVTQDDLDRIQASQWPGVNGCQDTQGNWYDWTQCISLDPHGDDGRLNILPYVCLD",binding,[1],no binding
same,binding,[2],no binding

# Source: publication doi:10.1101/2024.07.01.601608
